{"source": "patent US20160030407A1", "about": "“Method of Treating Inflammatory Lung Disease” (priority 2010, published 2016)", "assay": "Plasma toxicokinetics after single i.v. bolus", "format": "in vivo, Sprague-Dawley rats", "settings": "for Concentration in rat plasma: Anatabine 0.1 mg/kg dose group, individual rats; for Avg. Conc. (Combined Male and Female) / Avg. Conc. (Male or Female): Rat Plasma", "protocol": "Six rats (3 males and 3 females) were dosed per dose group. […] Plasma and brain homogenates were stored at −80° C. until analysis.\nAn additional 48 rats (24 males and 24 females) received a single intravenous dose via the tail vein at the same doses as mentioned above. At 30 and 360 minutes post administration, 6 rats (3 males and 3 females) per dose group, per time point were euthanized, bled via cardiac puncture, and perfused, and brains were collected. The brains were homogenized. Blood was spun, and plasma was collected. Plasma and brain homogenate were stored at −80° C.\nFour aliquots of each dose level formulation were collected and stored at −80° C. The test compound, corresponding dose level, number of animals, and sample collection times for Phase I of the study are shown in Table 3. The test compound, corresponding dose level, number of animals, and sample collection times for Phase II of the study are shown in Table 4. The physical signs of each animal were monitored following administration of the test compound.\nThe animals were weighed prior to dosing and received a single i.v. dose of either test compound at a volume of 5 mL/kg. Blood was collected via the venus plexus (retro-orbital) into tubes containing (K2) EDTA. No more than 0.5 mL was collected per time point. […] The brain was removed, weighed, homogenized in sterile 0.9% saline at a volume equal to its weight, and stored at −80° C.\nPlasma was separated according to the instructions for MICROTAINER® brand collection tubes (3 minutes, 2000×g). Plasma was decanted into microfuge tubes and stored at −80° C. Remaining test compound was stored at −80° C.\nThe amount of the test agent in the supernatant was determined by liquid chromatography tandem mass spectrometry (LC/MS/MS).\nAnalysis. Samples were analyzed by LC/MS/MS using an Agilent 6410 mass spectrometer coupled with an Agilent 1200 high pressure liquid chromatography (HPLC) and a CTC PAL chilled autosampler, all controlled by MassHunter software (Agilent). After separation on a hydrophilic interaction liquid chromatography (HILIC) HPLC column (Sepax) using an acetonitrile-ammonium acetate/acetic acid gradient system, peaks were analyzed by mass spectrometry (MS) using ESI ionization in multiple reaction monitoring (MRM) mode. MassHunter software was used to calculate the concentration of the test compounds in samples from the peak area using the appropriate calibration curves.", "note": "Where “and” joins values, the source holds several entries; their conditions need not be identical. Equal entries are not always repeated. Further values from the same series stand in other lists."}
{"smiles": "C1=CCC(c2cccnc2)NC1", "note": "(racemic) [Anatabine, 1,2,3,6-tetrahydro-[2,3′]bipyridinyl]", "values": [{"measurement": "Concentration in rat plasma", "setting": "time point 0.5 hr", "result": "16 ng/mL (2×) and 17 ng/mL and 13 ng/mL (2×) and 30 ng/mL (2×) and 32 ng/mL and 33 ng/mL and 31 ng/mL and 34 ng/mL and 10 ng/mL"}, {"measurement": "Concentration in rat plasma", "setting": "time point 1 hr", "result": "10 ng/mL and 16 ng/mL and 11 ng/mL and 12 ng/mL (2×) and 9 ng/mL"}, {"measurement": "Concentration in rat plasma", "setting": "time point 2 hr", "result": "6 ng/mL and 8 ng/mL (3×) and 5 ng/mL and 4 ng/mL"}, {"measurement": "Concentration in rat plasma", "setting": "time point 4 hr", "result": "3 ng/mL (3×) and 5 ng/mL"}, {"measurement": "Concentration in rat plasma", "setting": "time point 6 hr", "result": "7 ng/mL and 4 ng/mL (4×) and 3 ng/mL"}, {"measurement": "Avg. Conc. (Combined Male and Female)", "setting": "Anatabine 0.1 mg/kg, 0.5 hr (1st line), n = 12", "result": 22.9, "unit": "ng/mL"}, {"measurement": "Avg. Conc. (Combined Male and Female)", "setting": "Anatabine 0.1 mg/kg, 0.5 hr (2nd line), n = 6", "result": 31.7, "unit": "ng/mL"}, {"measurement": "Avg. Conc. (Combined Male and Female)", "setting": "Anatabine 0.1 mg/kg, 1 hr", "result": 8.0, "unit": "ng/mL"}, {"measurement": "Avg. Conc. (Combined Male and Female)", "setting": "Anatabine 0.1 mg/kg, 2 hr", "result": 8.7, "unit": "ng/mL"}, {"measurement": "Avg. Conc. (Combined Male and Female)", "setting": "Anatabine 0.1 mg/kg, 4 hr", "result": 5.2, "unit": "ng/mL"}, {"measurement": "Avg. Conc. (Combined Male and Female)", "setting": "Anatabine 0.1 mg/kg, 6 hr (1st line), n = 6", "result": 4.3, "unit": "ng/mL"}, {"measurement": "Avg. Conc. (Combined Male and Female)", "setting": "Anatabine 0.1 mg/kg, 6 hr (2nd line), n = 4", "result": 4.5, "unit": "ng/mL"}, {"measurement": "Avg. Conc. (Male or Female)", "setting": "Anatabine 0.1 mg/kg, female, 0.5 hr (1st line)", "result": 13.0, "unit": "ng/mL"}, {"measurement": "Avg. Conc. (Male or Female)", "setting": "Anatabine 0.1 mg/kg, female, 0.5 hr (2nd line)", "result": 31.7, "unit": "ng/mL"}, {"measurement": "Avg. Conc. (Male or Female)", "setting": "Anatabine 0.1 mg/kg, female, 1 hr", "result": 11.0, "unit": "ng/mL"}, {"measurement": "Avg. Conc. (Male or Female)", "setting": "Anatabine 0.1 mg/kg, female, 2 hr", "result": 6.7, "unit": "ng/mL"}, {"measurement": "Avg. Conc. (Male or Female)", "setting": "Anatabine 0.1 mg/kg, female, 4 hr", "result": 4.0, "unit": "ng/mL"}, {"measurement": "Avg. Conc. (Male or Female)", "setting": "Anatabine 0.1 mg/kg, female, 6 hr (1st line, N = 3, printed after 0.5 hr)", "result": 3.7, "unit": "ng/mL"}, {"measurement": "Avg. Conc. (Male or Female)", "setting": "Anatabine 0.1 mg/kg, female, 6 hr (2nd line, N = 1)", "result": 3.0, "unit": "ng/mL"}, {"measurement": "Avg. Conc. (Male or Female)", "setting": "Anatabine 0.1 mg/kg, male, 0.5 hr (1st line)", "result": 15.3, "unit": "ng/mL"}, {"measurement": "Avg. Conc. (Male or Female)", "setting": "Anatabine 0.1 mg/kg, male, 0.5 hr (2nd line)", "result": 31.7, "unit": "ng/mL"}, {"measurement": "Avg. Conc. (Male or Female)", "setting": "Anatabine 0.1 mg/kg, male, 1 hr", "result": 12.3, "unit": "ng/mL"}, {"measurement": "Avg. Conc. (Male or Female)", "setting": "Anatabine 0.1 mg/kg, male, 2 hr", "result": 6.3, "unit": "ng/mL"}, {"measurement": "Avg. Conc. (Male or Female)", "setting": "Anatabine 0.1 mg/kg, male, 4 hr", "result": 3.0, "unit": "ng/mL"}, {"measurement": "Avg. Conc. (Male or Female)", "setting": "Anatabine 0.1 mg/kg, male, 6 hr (2nd line)", "result": 5.0, "unit": "ng/mL"}, {"measurement": "Avg. Conc. (Combined Male and Female)", "setting": "Anatabine 0.75 mg/kg, 0.5 hr (2nd line), n = 6", "result": 327.8, "unit": "ng/mL"}, {"measurement": "Avg. Conc. (Combined Male and Female)", "setting": "Anatabine 0.75 mg/kg, 1 hr", "result": 162.2, "unit": "ng/mL"}, {"measurement": "Avg. Conc. (Combined Male and Female)", "setting": "Anatabine 0.75 mg/kg, 2 hr", "result": 91.7, "unit": "ng/mL"}, {"measurement": "Avg. Conc. (Combined Male and Female)", "setting": "Anatabine 0.75 mg/kg, 4 hr", "result": 40.0, "unit": "ng/mL"}, {"measurement": "Avg. Conc. (Combined Male and Female)", "setting": "Anatabine 0.75 mg/kg, 6 hr (1st line), n = 12", "result": 19.3, "unit": "ng/mL"}, {"measurement": "Avg. Conc. (Combined Male and Female)", "setting": "Anatabine 0.75 mg/kg, 6 hr (2nd line), n = 6", "result": 22.5, "unit": "ng/mL"}, {"measurement": "Avg. Conc. (Combined Male and Female)", "setting": "Anatabine 0.75 mg/kg, 8 hr", "result": 10.0, "unit": "ng/mL"}, {"measurement": "Avg. Conc. (Male or Female)", "setting": "Anatabine 0.75 mg/kg, female, 0.5 hr (1st line)", "result": 190.0, "unit": "ng/mL"}, {"measurement": "Avg. Conc. (Male or Female)", "setting": "Anatabine 0.75 mg/kg, female, 0.5 hr (2nd line)", "result": 354.0, "unit": "ng/mL"}, {"measurement": "Avg. Conc. (Male or Female)", "setting": "Anatabine 0.75 mg/kg, female, 1 hr", "result": 172.7, "unit": "ng/mL"}, {"measurement": "Avg. Conc. (Male or Female)", "setting": "Anatabine 0.75 mg/kg, female, 2 hr", "result": 99.7, "unit": "ng/mL"}, {"measurement": "Avg. Conc. (Male or Female)", "setting": "Anatabine 0.75 mg/kg, female, 4 hr", "result": 45.3, "unit": "ng/mL"}, {"measurement": "Avg. Conc. (Male or Female)", "setting": "Anatabine 0.75 mg/kg, female, 6 hr (1st line)", "result": 18.3, "unit": "ng/mL"}, {"measurement": "Avg. Conc. (Male or Female)", "setting": "Anatabine 0.75 mg/kg, female, 6 hr (2nd line)", "result": 23.0, "unit": "ng/mL"}, {"measurement": "Avg. Conc. (Male or Female)", "setting": "Anatabine 0.75 mg/kg, female, 8 hr", "result": 11.0, "unit": "ng/mL"}, {"measurement": "Avg. Conc. (Male or Female)", "setting": "Anatabine 0.75 mg/kg, male, 0.5 hr (1st line)", "result": 180.7, "unit": "ng/mL"}, {"measurement": "Avg. Conc. (Male or Female)", "setting": "Anatabine 0.75 mg/kg, male, 0.5 hr (2nd line)", "result": 301.7, "unit": "ng/mL"}, {"measurement": "Avg. Conc. (Male or Female)", "setting": "Anatabine 0.75 mg/kg, male, 1 hr", "result": 151.7, "unit": "ng/mL"}, {"measurement": "Avg. Conc. (Male or Female)", "setting": "Anatabine 0.75 mg/kg, male, 2 hr", "result": 83.7, "unit": "ng/mL"}, {"measurement": "Avg. Conc. (Male or Female)", "setting": "Anatabine 0.75 mg/kg, male, 4 hr", "result": 34.7, "unit": "ng/mL"}, {"measurement": "Avg. Conc. (Male or Female)", "setting": "Anatabine 0.75 mg/kg, male, 6 hr (1st line)", "result": 14.0, "unit": "ng/mL"}, {"measurement": "Avg. Conc. (Male or Female)", "setting": "Anatabine 0.75 mg/kg, male, 6 hr (2nd line)", "result": 22.0, "unit": "ng/mL"}, {"measurement": "Avg. Conc. (Male or Female)", "setting": "Anatabine 0.75 mg/kg, male, 8 hr", "result": 9.0, "unit": "ng/mL"}, {"measurement": "Avg. Conc. (Combined Male and Female)", "setting": "Anatabine 1.0 mg/kg, 0.5 hr (1st line), n = 12", "result": 319.1, "unit": "ng/mL"}, {"measurement": "Avg. Conc. (Combined Male and Female)", "setting": "Anatabine 1.0 mg/kg, 0.5 hr (2nd line), n = 6", "result": 383.5, "unit": "ng/mL"}, {"measurement": "Avg. Conc. (Combined Male and Female)", "setting": "Anatabine 1.0 mg/kg, 1 hr", "result": 231.3, "unit": "ng/mL"}, {"measurement": "Avg. Conc. (Combined Male and Female)", "setting": "Anatabine 1.0 mg/kg, 2 hr", "result": 143.3, "unit": "ng/mL"}, {"measurement": "Avg. Conc. (Combined Male and Female)", "setting": "Anatabine 1.0 mg/kg, 4 hr", "result": 51.5, "unit": "ng/mL"}, {"measurement": "Avg. Conc. (Combined Male and Female)", "setting": "Anatabine 1.0 mg/kg, 6 hr (1st line), n = 12", "result": 24.3, "unit": "ng/mL"}, {"measurement": "Avg. Conc. (Combined Male and Female)", "setting": "Anatabine 1.0 mg/kg, 6 hr (2nd line), n = 6", "result": 25.0, "unit": "ng/mL"}, {"measurement": "Avg. Conc. (Male or Female)", "setting": "Anatabine 1.0 mg/kg, female, 0.5 hr (1st line)", "result": 237.0, "unit": "ng/mL"}]}
